# Some entries share one result that the patent states for a list of compounds. For at least one compound, name, drawing or mass did not settle the structure.
# What was measured:
# [1] = tested on: SK-OV-3 peritoneal tumors; experiment: Direct application / IP injection in mouse model of disseminated peritoneal ovarian cancer; format: in vivo, nude mice; details: direct application or IP injection, 10-60 min
# Protocol: BDMODS-PI and C12PMMA-PI show enhanced drug uptake by surface tissue and microtumors following IP and intraperitoneal perfusion chemotherapy (IPPC) application in a mouse tumor model. For establishment of the cancer model, 2×10^6 SK-OV-3 cells were injected IP into nude mice. The mice were examined at two weeks following cell inoculation, or at the first manifestation of ascites (about 4-5 wks). Tissue samples were fixed in 10% NBF, routinely processed, stained with H&E stain, and subjected to histopathological analysis. […] At 4-5 weeks after SK-OV-3 cell inoculation, maximum tumor size increased to 5-7 mm with the bulk of cancer development present as about 0.1 to about 1 mm microtumors (FIG. 9). At 5 wks most peritoneal surfaces were affected by growing cancer cells, coating both the visceral and parietal peritoneum, e.g. liver, pancreas, and diaphragm. […]
# Two weeks following cell inoculation, the abdominal cavity was opened and the drug mixture was directly applied on the duodenum and ovary/uterus/fallopian tubes (220 μL of drug-OS/ITG over 30 sec). […] Cellular uptake of the prodrug was stronger at the surface of the metastases, but also readily detectable in the middle of the small tumors (tumor size about 0.5 to about 1 mm; FIG. 7-8). […]
# [2] = tested on: SK-OV-3 (human ovarian carcinoma) cells; experiment: In vitro cellular uptake by fluorescence microscopy, SK-OV-3; format: cell-based; details: SK-OV-3, FIG. 5A
# Protocol: In Vitro cellular uptake of PI, RRH-PI compounds, and IV evaluated by fluorescence measurements. […] Adherent cells were plated at 2.5×10^5 cells/well on 6-well plates 24 h prior to testing. The growth media was removed from individual wells and the drug/prodrug was immediately added to the well with the mixing chamber. […] After 30 sec the drug solution was removed (aspirated) and 2 ml complete media was added to the cells. Experiments conducted with prodrug that was hydrolyzed prior to application to the cells followed a similar protocol, however the combined solution obtained after passing through the mixing chamber was collected and allowed to sit at ambient temperature for 5 min prior to application on the cells. […] Fluorescent microscopy studies were conducted with a three laser LSM 510 confocal microscope, an Axiovert S100 fluorescent microscope, or an Axioplan2 fluorescent microscope (all Zeiss) equipped with filter sets for the rhodamine fluorescence channel (λex=BP 450/12, λem=LP 590 nm filter set) and the fluorescein fluorescent channel (λex=BP 546/90, λem=LP 515 nm filter set). […] Imaging was conducted on an Axioplan2 fluorescent microscope (Zeiss) and the same fields were imaged with phase contrast illumination, in the rhodamine fluorescence channel (λex=BP 450/12, λem=LP 590 nm filter set), and in the fluorescein fluorescent channel (λex=BP 546/90, λem=LP 515 nm filter set). […]
smiles,measurement,setting,value
"CCCCCCCCCCCCCCCCCC[Si](C)(C)Nc1ccc2c(c1)c(-c1ccccc1)[n+](CCC[N+](C)(CC)CC)c1cc(N[Si](C)(C)CCCCCCCCCCCCCCCCCC)ccc21.[I-].[I-] [II, 3,8-bis[((dimethyl)octadecylsilazyl)amine] 5-(3,3-diethyl-3-methylammoniumpropyl) 6-phenyl phenanthridinium diiodide]",depth of tumor targeting from the tumor surface,[1],up to 500 μm
same,cells stained,[2],60-80%

# From patent US20090074885A1, “Reversible Hydrophobic Modification of Drugs for Improved Delivery to Cells” (Roche Madison Inc., priority 2003, published 2009)
